Assay results published in BindingDB's records for doi:10.1016/s0024-3205(00)00911-5 (Mayo Foundation, 2000).

Chains of the proteins cited; added tags and fusions are not shown.
UniProt P28223, whole entry: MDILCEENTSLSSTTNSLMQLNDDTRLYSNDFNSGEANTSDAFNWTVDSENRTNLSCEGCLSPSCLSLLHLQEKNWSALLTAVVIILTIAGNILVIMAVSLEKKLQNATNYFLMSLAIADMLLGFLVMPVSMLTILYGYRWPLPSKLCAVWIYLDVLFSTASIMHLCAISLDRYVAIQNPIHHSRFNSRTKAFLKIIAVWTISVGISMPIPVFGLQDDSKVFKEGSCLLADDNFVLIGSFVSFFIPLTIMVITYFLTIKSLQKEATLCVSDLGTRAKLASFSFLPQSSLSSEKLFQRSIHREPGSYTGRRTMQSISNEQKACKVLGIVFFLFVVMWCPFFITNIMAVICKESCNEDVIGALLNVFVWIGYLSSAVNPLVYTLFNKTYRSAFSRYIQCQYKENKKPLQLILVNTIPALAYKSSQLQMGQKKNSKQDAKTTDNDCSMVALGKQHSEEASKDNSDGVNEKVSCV

Molecular target: 5-hydroxytryptamine receptor 2A (Homo sapiens, UniProt P28223)

COc1cc(C(C)=O)ccc1OCCCN1CCC(c2noc3cc(F)ccc23)CC1
Ki: 0.2 nM
